Measurements: PMC12431657, “Discovery and mechanistic insights of dibenzoylmethane as a broad spectrum inhibitor of coronavirus” (PLOS Pathogens, 2025)
Where a name gives a salt, the structure may show the parent alone. Read-outs that look alike come from different tables or passages of the source. Out of some 3,300 compounds screened, about 95 (3%) showed an effect of 50% or more. Some of the results follow.

Tested on: HCoV-229E
Design: species or system Huh-7; HTS, protection from HCoV-229E induced cell death, luminescent cell viability (CellCounting-Lite 2.0), inhibition rate
Details: 24 h post infection, 1 h compound pre-incubation, 10 µM, inhibitor

Row | SMILES | 229E Inhibition rate [%] | 229E Inhibition rate (229E Inhibition rate, 24 h) [%]
1 | COc1ccc2c(c1OC)O[C@H]1c3ccc(O[C@@H]4O[C@H](CO)[C@@H](O)[C@H](O)[C@H]4O)cc3OC[C@@H]21 [Methylnissolin-3-O-glucoside] | 0 | 
2 | COc1ccc([C@@H]2CC(=O)c3c(O)cc(O[C@@H]4O[C@H](CO)[C@@H](O)[C@H](O)[C@H]4O[C@@H]4O[C@@H](C)[C@H](O)[C@@H](O)[C@H]4O)cc3O2)cc1 [Poncirin] | 28.8 | 
3 | COc1cc2c(cc1OC)-c1c(C)c3ccc(OC)c(OC)c3c[n+]1CC2 [Dehydrocorydaline] |  | 19.9
4 | COc1cc2c(cc1OC)[C@@H]1Cc3ccc(OC)c(OC)c3CN1CC2 [Tetrahydropalmatine] |  | 13.2
5 | C[C@@H]1O[C@@H](c2c(O)c([C@@H]3O[C@H](CO)[C@@H](O)[C@H](O)[C@H]3O)c3oc(-c4ccc(O)cc4)cc(=O)c3c2O)[C@H](O)[C@H](O)[C@H]1O [Isoviolanthin] | 30.8 | 
6 | C[C@@H]1O[C@@H](Oc2cc(O)c3c(=O)c(O)c(-c4ccc(O)cc4)oc3c2O)[C@H](O)[C@H](O[C@H]2O[C@@H](CO)[C@H](O)[C@@H](O)[C@@H]2O)[C@H]1O [Rhodiosin] | 42.2 | 
7 | O=C(O)Cc1ccc(O)cc1 [4-Hydroxyphenylacetic acid] | 52.1 | 
8 | COc1c(-c2ccccc2)oc2c(ccc3occc32)c1=O [Karanjin] | 5.8 | 
9 | CC[C@H]1CN2CC[C@@]3(C(=O)Nc4ccccc43)[C@@H]2C[C@@H]1/C(=C\OC)C(=O)OC [Isorhynchophylline] | 7.9 | 
10 | CC(C)=CCC/C(C)=C/CC/C(C)=C/CO [Farnesol] | 16.8 | 
11 | O=C(O)CCc1ccccc1O [3-(2-Hydroxyphenyl)propanoic acid] | 10.1 | 
12 | COc1cc(O)c2c(=O)c(O[C@@H]3O[C@H](CO)[C@@H](O)[C@H](O)[C@H]3O)c(-c3ccc(O[C@@H]4O[C@H](CO)[C@@H](O)[C@H](O)[C@H]4O)cc3)oc2c1 [Complanatuside] | 32.5 | 
13 | C[C@H]1[C@H](C)CC[C@]2(C(=O)O)CC[C@]3(C)C(=CC[C@@H]4[C@@]5(C)C[C@@H](O)[C@H](O)C(C)(C)[C@@H]5CC[C@]43C)[C@H]12 [Corosolic acid] | 5.1 | 
14 | C=C(C)[C@H](CC=C(C)C)Cc1c(O)cc(OC)c2c1O[C@H](c1ccc(O)cc1O)CC2=O [Kurarinone] | 19.7 | 
15 | Cc1cc(=O)c2c(O)c3c(cc2o1)OC(C)(C)[C@@H](O[C@@H]1O[C@H](CO)[C@@H](O)[C@H](O)[C@H]1O)C3 [Sec-O-Glucosylhamaudol] | 0 | 
16 | COc1c(O)cc2c(c1O)C(=O)c1c(cc(C)c(O)c1OC)C2=O [Aurantio-obtusin] | 23.9 | 
17 | O=C(/C=C/c1ccc(O)cc1)NCCc1ccc(O)cc1 [N-p-trans-Coumaroyltyramine] | 26 | 
18 | C[N+](C)(C)C[C@H](O)CC(=O)[O-] [L-Carnitine (hydrochloride)] |  | 8.7

Some values from the list:
Entry of COc1c(O)cc2c(c1O)C(=O)c1c(cc(C)c(O)c1OC)C2=O [Aurantio-obtusin] under 229E Inhibition rate [%]: 23.9
Entry of COc1cc2c(cc1OC)-c1c(C)c3ccc(OC)c(OC)c3c[n+]1CC2 [Dehydrocorydaline] under 229E Inhibition rate (229E Inhibition rate, 24 h) [%]: 19.9

(next part)

Row | SMILES | 229E Inhibition rate [%] | 229E Inhibition rate (229E Inhibition rate, 24 h) [%]
19 | COc1cc(CCC(O)CC(O)CCc2ccc(O)c(OC)c2)ccc1O (stereo not drawn) [Octahydrocurcumin] | 15 | 
20 | O=C(/C=C/c1ccc(O)c(O)c1)OC[C@@H](O)CO[C@@H]1O[C@H](CO)[C@@H](O)[C@H](O)[C@H]1O [Regaloside C] | 52.3 | 
21 | O=C(O)c1cc(=O)cc(C(=O)O)o1 [Chelidonic acid] | 9 | 
22 | C[C@@H]1CC[C@]2(C(=O)O)CC[C@]3(C)C(=CC[C@@H]4[C@@]5(C)C[C@@H](O)[C@@H](O)C(C)(C)[C@@H]5CC[C@]43C)[C@@H]2[C@]1(C)O [Euscaphic acid] | 13.7 | 
23 | OC[C@H]1O[C@H](OC[C@H]2O[C@H](O[C@]3(CO)O[C@H](CO)[C@@H](O)[C@@H]3O)[C@H](O)[C@@H](O)[C@@H]2O)[C@H](O)[C@@H](O)[C@H]1O [Raffinose] | 52.1 | 
24 | NC(=O)NC(CC(=O)O)C(=O)O (racemic) [N-Carbamoyl-DL-aspartic acid] | 10 | 
25 | OCCc1ccc(O)c(O)c1 [Hydroxytyrosol] | 9.4 | 
26 | COc1cc2c(cc1O)CC[C@@H]1[C@@H]2CC[C@]2(C)C(=O)CC[C@@H]12 [2-Methoxyestrone] | 10.1 | 
27 | C=C1CC[C@@H]2[C@](C)(CO[C@@H]3O[C@H](CO)[C@@H](O)[C@H](O)[C@H]3O)CCC[C@@]2(C)[C@@H]1CCC1=CCOC1=O [Neoandrographolide] | 3.5 | 
28 | CC(C)(O)CCc1c(O)cc(O)c2c(=O)c(O)c(-c3ccc(O)cc3)oc12 [Noricaritin] | 14.9 | 
29 | O=C(C[C@H]1NCCC[C@@H]1O)Cn1cnc2cc(Br)c(Cl)cc2c1=O (racemic) [Halofuginone (hydrobromide)] |  | 21.7
30 | COc1cc(C(=O)OCCCCNC(=N)N)cc(OC)c1O [Leonurine (hydrochloride)] |  | 27.9
31 | Cc1cn([C@@H]2O[C@H](CO)[C@@H](O)[C@H]2O)c(=O)[nH]c1=O [5-Methyluridine] | 14.9 | 
32 | C[C@H](CC[C@@H](O)C(C)(C)O)[C@H]1CC[C@@]2(C)[C@@H]3CC=C4[C@@H](CC[C@H](O[C@@H]5O[C@H](CO[C@@H]6O[C@H](CO)[C@@H](O)[C@H](O)[C@H]6O)[C@@H](O)[C@H](O)[C@H]5O)C4(C)C)[C@]3(C)[C@H](O)C[C@]12C [Mogroside II-A2] | 10 | 
33 | CCC(=O)OC(CC(=O)[O-])C[N+](C)(C)C (stereo not drawn) [Propionylcarnitine] | 45.8 | 
34 | CN[C@@H]1[C@@H](O)[C@@H](O[C@@H]2[C@@H](O)[C@H](O[C@H]3OC(CN)=CC[C@H]3N)[C@@H](N)C[C@H]2N)OC[C@]1(C)O [Sisomicin (sulfate)] | 9.6 | 
35 | N[C@@H](CC(=O)O)C(=O)O [Aspartic acid (calcium)] |  | 8.5
36 | CC[C@H]1CN2CC[C@H]1C[C@@H]2[C@@H](O)c1ccnc2ccc(OC)cc12 [Hydroquinidine] | 28.4 | 
